In US20090169546A1:
No constants are given. Whether binding was seen depends on the method and setting. Some binding calls cover weakened binding; strength is not graded here.

Protein sequences, listed by entry. Tags and fused reporters are not part of them. Residues count along the entry.
UniProt Q62151, residues 24-342: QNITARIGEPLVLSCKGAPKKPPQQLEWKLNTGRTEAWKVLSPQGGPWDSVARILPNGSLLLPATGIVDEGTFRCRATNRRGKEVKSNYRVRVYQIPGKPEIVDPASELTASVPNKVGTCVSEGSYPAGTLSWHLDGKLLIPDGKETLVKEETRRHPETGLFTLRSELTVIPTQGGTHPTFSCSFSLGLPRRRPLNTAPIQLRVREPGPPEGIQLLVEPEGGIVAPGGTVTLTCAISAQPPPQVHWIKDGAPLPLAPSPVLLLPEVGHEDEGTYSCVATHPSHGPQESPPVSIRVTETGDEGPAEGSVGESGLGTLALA
UniProt P10103, residues 2-215: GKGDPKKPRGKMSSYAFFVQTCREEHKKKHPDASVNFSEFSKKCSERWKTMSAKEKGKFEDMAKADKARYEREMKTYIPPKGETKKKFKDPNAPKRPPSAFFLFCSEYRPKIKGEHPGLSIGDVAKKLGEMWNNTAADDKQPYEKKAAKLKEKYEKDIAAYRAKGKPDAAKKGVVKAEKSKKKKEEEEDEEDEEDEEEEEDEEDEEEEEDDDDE

Legend:
[1] = molecular target: Mouse RAGE/Fc (mouse) (UniProt Q62151); assay: ELISA on coated RAGE/Fc
[2] = molecular target: Mouse RAGE/Fc (mouse) (UniProt Q62151); assay: ELISA on coated RAGE/Fc; HMGB1 in complex with biotin labeled CpG
[3] = molecular target: Mouse RAGE/Fc (mouse) (UniProt Q62151); assay: ELISA on coated RAGE/Fc, HMGB1 alone or in complex with CpG-A, FIG. 35

Measured: binding

HMG1 purified from calf (bovine) thymus (from UniProt P10103 2-215) (ligand)
binds: [1] | [2] | [3]
